# PubChem BioAssay AID1671195, Yale University, 2021
# Aim: 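Knockdowns that increase or decrease uptake of fluorescent LDL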 (primary screen)
# Cell system: human Huh7 hepatoma cells
# Knock-down reagent: siRNA pool against human genes, 18 nM
# Timing: about 2 to 2.5 days of knockdown, then 8 h LDL uptake
# Challenge: DiI-labelled LDL at 30 µg/ml for 8 h, in lipoprotein-deficient serum medium
# Read-out: 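Fluorescent LDL signal imaged in cells, scaled to the plate median, robust z-score for each replicate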
# Scale: robust z-score: higher = more LDL uptake after knockdown
# Active means: 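a gene counts as active if at least two replicate z-scores exceed ±2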
# The deposit covers about 22,000 reagents; shown is a part drawn at random. About 1,510 of all reagents (6.9%) count as active. 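Active includes knockdowns raising or lowering LDL uptake; positive z-scores mean more uptake, negative mean less.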 Reagent sequences are not shown.
Target gene,"robust z-score, replicate 1","robust z-score, replicate 2","robust z-score, replicate 3",activity call
PRKN (GeneID 5071),1.22,2.31,2.08,active
LOC440742 (GeneID 440742),0.056,0.69,-0.511,inactive
LIMK1 (GeneID 3984),-1.1,-1.66,-1.67,inactive
LZTFL1 (GeneID 54585),2.62,2.36,1.76,active
ZNF205-AS1 (GeneID 81854),0.831,0.4,0.594,inactive
STK40 (GeneID 83931),-0.431,0.109,-0.0199,inactive
USPL1 (GeneID 10208),0.295,-0.749,0.108,inactive
LOC439955 (retired record) (GeneID 439955),0.0217,0.0623,-0.447,inactive
RANBP3 (GeneID 8498),-0.565,-0.0826,-0.383,inactive
FAM162A (GeneID 26355),5.06,-0.812,-0.91,inactive
MAB21L2 (GeneID 10586),0.551,0.0103,-1,inactive
SH3RF1 (GeneID 57630),0.00259,0.569,0.32,inactive
NEDD1 (GeneID 121441),1.78,1.52,0.418,inactive
RCSD1 (GeneID 92241),0.577,-0.343,-0.364,inactive
FAM225A (GeneID 286333),-0.146,0.0671,-0.117,inactive
HGS (GeneID 9146),0.107,-0.2,-0.13,inactive
KCTD9 (GeneID 54793),-0.832,-0.988,-0.323,inactive
CSGALNACT1 (GeneID 55790),1.37,0.519,1.95,inactive
LOC389369 (retired record) (GeneID 389369),-0.796,-0.636,-0.646,inactive
ZNF271P (GeneID 10778),-0.323,-0.159,-0.91,inactive
LOC442717 (retired record) (GeneID 442717),-0.201,0.26,-0.119,inactive
ANK1 (GeneID 286),-2.02,-2.3,-2.32,active
TAS2R39 (GeneID 259285),0.129,-1.5,0.848,inactive
SLC43A2 (GeneID 124935),0.313,1.54,-0.101,inactive
DENND4A (GeneID 10260),-1.97,-1.29,0.938,inactive
ACTA1 (GeneID 58),-0.676,-0.267,-0.0705,inactive
GASK1B (GeneID 51313),-0.0392,0.727,-0.084,inactive
SNX21 (GeneID 90203),-0.337,-0.332,-0.274,inactive
PARP14 (GeneID 54625),-0.036,-0.274,-0.417,inactive
BAAT (GeneID 570),0.65,0.711,0.692,inactive
LOC390930 (retired record) (GeneID 390930),-1.4,-1.39,-1.33,inactive
HSD17B11 (GeneID 51170),0.144,0.433,0.314,inactive
GSTO1 (GeneID 9446),-0.412,0.246,-0.452,inactive
EFCAB5 (GeneID 374786),0.136,0.947,0.3,inactive
ENTREP1 (GeneID 9413),-0.448,1.53,-0.161,inactive
FAM216A (GeneID 29902),1.14,2.59,0.643,inactive
SULT2A1 (GeneID 6822),-0.35,-0.463,-0.428,inactive
SLC25A19 (GeneID 60386),-0.323,-0.68,-0.144,inactive
CYYR1 (GeneID 116159),-1.19,-0.206,-0.284,inactive
MAVS (GeneID 57506),0.512,1.1,1.09,inactive
LOC441378 (retired record) (GeneID 441378),1.39,1.11,1.52,inactive
LOC401254 (retired record) (GeneID 401254),0.631,-1.82,0.448,inactive
CAMK2N2 (GeneID 94032),0.901,1.09,2.19,inactive
IL4I1 (GeneID 259307),2.66,2.25,2.3,active
ASB14 (GeneID 142686),2.83,1.28,2.25,active
NRAS (GeneID 4893),1.88,2.73,2.27,active
